Assay results reported in paper PMC12989817.
No constants are given. Whether binding was seen depends on the method and setting. Binding seen in cells or lysates may run through a third protein. Here binding means that the protein was enriched with, or labelled near, the bait; the list need not be complete.

Sequences of proteins named here, by UniProt entry; tags and fusion partners are left off. Residues count along the entry.
UniProt Q96BY6: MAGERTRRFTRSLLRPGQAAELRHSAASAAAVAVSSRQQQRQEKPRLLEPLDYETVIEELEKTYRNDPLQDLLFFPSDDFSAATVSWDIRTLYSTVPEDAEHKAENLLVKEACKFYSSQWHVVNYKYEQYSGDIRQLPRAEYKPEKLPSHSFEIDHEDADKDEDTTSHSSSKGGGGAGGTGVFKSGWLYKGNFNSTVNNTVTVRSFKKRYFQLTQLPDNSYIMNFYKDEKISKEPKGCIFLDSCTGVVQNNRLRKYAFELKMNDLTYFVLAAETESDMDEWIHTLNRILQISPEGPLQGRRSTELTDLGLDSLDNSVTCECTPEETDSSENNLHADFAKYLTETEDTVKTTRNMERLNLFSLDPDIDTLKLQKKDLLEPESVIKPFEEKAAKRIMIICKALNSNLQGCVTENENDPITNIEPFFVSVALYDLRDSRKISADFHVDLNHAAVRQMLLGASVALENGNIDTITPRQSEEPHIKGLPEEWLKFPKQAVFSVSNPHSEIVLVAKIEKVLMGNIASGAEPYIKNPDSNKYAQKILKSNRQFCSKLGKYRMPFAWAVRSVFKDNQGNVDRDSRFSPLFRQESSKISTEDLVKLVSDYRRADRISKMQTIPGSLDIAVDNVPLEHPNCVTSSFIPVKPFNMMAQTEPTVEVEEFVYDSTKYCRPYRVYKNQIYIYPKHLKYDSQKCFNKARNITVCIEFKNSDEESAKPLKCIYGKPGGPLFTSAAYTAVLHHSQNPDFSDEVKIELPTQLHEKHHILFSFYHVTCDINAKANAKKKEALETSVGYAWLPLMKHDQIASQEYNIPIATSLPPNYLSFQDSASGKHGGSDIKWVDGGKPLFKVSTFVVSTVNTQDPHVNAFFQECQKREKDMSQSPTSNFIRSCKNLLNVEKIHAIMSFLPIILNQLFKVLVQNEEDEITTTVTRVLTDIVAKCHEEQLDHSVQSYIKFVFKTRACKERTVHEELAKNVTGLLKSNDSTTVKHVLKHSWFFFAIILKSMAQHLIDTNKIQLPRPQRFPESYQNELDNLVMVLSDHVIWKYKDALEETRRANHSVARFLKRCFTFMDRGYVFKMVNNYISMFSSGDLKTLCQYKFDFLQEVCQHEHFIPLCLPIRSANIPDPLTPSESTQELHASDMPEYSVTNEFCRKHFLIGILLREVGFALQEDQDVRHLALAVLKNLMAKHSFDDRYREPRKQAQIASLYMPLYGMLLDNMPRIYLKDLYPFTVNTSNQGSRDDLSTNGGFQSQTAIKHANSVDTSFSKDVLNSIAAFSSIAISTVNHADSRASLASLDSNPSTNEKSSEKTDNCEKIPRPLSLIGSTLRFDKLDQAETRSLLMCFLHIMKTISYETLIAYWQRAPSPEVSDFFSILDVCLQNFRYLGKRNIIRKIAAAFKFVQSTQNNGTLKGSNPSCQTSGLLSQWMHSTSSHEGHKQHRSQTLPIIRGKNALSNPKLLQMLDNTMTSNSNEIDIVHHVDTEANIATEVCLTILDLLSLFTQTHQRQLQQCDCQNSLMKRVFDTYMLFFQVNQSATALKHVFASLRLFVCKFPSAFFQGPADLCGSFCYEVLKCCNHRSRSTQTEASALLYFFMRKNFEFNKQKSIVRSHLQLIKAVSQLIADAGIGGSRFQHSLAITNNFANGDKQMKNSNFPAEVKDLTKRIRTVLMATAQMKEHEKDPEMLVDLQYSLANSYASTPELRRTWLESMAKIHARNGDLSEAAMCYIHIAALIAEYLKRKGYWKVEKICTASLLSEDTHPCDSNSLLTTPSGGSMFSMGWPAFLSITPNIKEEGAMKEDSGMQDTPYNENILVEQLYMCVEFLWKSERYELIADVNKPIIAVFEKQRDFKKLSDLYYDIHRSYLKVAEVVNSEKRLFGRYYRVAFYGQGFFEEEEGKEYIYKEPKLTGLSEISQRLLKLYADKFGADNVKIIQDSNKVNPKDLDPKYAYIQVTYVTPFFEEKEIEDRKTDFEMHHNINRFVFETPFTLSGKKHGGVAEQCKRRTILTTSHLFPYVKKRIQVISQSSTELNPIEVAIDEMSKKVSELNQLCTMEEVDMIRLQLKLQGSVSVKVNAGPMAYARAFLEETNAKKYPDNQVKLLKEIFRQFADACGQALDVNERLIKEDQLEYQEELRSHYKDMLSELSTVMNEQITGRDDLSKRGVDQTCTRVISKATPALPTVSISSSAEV
UniProt P16591: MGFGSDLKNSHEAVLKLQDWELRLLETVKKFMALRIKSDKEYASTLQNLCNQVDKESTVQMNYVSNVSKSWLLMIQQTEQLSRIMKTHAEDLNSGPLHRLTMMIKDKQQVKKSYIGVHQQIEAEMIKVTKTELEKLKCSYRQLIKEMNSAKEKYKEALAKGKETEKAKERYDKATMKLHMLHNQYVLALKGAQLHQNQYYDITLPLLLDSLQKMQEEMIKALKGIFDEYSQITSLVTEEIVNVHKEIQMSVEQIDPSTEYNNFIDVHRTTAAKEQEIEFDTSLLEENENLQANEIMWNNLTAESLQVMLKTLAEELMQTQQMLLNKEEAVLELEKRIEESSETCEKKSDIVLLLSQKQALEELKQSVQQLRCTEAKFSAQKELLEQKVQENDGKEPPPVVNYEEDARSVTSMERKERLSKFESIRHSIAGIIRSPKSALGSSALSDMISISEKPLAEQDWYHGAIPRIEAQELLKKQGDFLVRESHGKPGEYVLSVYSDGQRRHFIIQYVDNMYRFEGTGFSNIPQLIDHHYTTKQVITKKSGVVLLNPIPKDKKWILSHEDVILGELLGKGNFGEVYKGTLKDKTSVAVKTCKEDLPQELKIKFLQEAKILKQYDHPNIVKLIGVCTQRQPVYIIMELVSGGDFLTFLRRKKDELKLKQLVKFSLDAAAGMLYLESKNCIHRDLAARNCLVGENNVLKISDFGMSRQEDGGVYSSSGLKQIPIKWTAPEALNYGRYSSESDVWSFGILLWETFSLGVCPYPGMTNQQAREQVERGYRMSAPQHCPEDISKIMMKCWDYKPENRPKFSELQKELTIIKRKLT
UniProt O15118, residues 23-1278: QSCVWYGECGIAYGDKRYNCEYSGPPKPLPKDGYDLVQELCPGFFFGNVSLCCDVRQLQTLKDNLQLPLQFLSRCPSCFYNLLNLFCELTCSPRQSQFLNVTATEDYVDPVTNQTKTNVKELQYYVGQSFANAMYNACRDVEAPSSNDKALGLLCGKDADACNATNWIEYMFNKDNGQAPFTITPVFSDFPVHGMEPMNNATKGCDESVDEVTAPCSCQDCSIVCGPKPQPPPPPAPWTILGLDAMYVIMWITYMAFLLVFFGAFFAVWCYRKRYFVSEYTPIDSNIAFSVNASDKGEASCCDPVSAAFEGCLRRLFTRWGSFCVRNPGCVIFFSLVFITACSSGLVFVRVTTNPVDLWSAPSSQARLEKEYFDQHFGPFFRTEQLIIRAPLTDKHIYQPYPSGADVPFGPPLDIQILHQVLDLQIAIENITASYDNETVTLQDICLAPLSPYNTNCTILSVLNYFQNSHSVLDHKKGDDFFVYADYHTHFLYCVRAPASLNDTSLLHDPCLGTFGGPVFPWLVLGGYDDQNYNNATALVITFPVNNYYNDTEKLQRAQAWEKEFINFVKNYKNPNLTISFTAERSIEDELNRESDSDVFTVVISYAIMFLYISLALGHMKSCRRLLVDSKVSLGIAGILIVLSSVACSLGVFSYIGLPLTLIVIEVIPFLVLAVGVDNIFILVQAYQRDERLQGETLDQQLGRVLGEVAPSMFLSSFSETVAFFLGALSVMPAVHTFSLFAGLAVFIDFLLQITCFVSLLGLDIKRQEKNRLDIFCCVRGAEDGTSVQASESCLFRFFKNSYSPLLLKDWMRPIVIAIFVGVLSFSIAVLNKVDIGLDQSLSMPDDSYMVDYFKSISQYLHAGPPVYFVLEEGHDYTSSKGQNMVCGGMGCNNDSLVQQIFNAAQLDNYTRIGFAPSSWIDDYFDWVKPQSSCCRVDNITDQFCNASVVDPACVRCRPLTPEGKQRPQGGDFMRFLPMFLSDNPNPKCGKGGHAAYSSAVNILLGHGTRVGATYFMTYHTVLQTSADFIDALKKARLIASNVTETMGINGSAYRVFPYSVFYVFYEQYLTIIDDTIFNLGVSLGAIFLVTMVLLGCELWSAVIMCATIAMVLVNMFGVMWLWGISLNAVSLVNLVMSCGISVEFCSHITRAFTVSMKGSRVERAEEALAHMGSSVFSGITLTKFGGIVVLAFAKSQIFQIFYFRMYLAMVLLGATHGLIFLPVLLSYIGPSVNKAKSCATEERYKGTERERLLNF
UniProt O00443: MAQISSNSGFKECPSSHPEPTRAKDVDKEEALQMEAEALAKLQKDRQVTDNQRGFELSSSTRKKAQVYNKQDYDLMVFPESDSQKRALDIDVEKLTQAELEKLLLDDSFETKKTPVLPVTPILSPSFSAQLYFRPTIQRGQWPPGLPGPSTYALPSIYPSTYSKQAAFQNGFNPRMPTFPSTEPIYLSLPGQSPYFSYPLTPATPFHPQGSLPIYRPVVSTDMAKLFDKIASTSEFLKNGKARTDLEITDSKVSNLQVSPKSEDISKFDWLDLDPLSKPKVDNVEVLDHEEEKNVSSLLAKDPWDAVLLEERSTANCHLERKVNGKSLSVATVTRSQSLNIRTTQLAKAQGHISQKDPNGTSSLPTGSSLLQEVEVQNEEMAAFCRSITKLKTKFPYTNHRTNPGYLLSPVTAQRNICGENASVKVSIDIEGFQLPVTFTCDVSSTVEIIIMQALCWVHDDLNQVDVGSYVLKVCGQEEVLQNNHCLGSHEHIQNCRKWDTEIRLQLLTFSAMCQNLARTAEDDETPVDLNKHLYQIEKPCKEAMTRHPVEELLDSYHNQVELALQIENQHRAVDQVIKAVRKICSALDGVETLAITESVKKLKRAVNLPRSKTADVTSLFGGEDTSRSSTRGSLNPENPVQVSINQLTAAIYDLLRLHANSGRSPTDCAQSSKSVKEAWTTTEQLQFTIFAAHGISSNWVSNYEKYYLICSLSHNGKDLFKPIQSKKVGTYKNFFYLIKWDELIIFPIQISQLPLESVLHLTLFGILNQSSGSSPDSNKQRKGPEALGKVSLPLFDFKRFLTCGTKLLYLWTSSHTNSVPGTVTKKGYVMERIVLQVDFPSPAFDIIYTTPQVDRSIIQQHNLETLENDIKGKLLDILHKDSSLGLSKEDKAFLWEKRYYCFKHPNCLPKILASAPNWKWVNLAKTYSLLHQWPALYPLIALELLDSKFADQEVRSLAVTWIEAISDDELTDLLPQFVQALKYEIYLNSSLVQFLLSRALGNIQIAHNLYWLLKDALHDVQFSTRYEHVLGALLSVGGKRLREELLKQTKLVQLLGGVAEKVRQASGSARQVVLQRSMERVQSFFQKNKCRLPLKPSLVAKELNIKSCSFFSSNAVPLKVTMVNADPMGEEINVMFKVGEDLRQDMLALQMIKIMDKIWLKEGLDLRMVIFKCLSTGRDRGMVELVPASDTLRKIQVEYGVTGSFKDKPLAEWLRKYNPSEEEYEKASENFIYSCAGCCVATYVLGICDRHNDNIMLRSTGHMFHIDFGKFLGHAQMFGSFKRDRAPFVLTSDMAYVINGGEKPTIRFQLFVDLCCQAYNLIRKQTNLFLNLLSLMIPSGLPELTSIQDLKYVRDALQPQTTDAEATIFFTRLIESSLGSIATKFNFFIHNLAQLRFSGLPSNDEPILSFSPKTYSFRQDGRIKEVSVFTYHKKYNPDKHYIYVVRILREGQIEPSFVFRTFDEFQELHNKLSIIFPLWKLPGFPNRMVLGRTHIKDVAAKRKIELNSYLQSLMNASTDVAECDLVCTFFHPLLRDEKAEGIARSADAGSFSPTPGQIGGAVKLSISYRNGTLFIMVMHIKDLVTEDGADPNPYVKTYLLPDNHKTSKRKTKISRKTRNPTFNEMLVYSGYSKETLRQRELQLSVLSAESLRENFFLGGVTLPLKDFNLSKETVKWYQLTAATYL
UniProt Q9BUF5: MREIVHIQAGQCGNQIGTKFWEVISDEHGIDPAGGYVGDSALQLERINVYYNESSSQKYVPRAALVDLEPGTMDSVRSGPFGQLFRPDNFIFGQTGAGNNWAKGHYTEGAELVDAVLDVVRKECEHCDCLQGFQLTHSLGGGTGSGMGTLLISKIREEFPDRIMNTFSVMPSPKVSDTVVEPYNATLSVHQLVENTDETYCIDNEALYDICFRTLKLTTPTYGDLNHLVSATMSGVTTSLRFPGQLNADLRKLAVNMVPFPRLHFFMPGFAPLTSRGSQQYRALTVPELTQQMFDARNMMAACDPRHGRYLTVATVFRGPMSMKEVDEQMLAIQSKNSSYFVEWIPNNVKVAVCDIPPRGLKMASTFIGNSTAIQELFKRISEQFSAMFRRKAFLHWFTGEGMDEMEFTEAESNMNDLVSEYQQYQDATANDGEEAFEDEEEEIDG

B1: GAK (protein, UniProt O14976 1-1311)
chain: MSLLQSALDFLAGPGSLGGASGRDQSDFVGQTVELGELRLRVRRVLAEGGFAFVYEAQDVGSGREYALKRLLSNEEEKNRAIIQEVCFMKKLSGHPNIVQFCSAASIGKEESDTGQAEFLLLTELCKGQLVEFLKKMESRGPLSCDTVLKIFYQTCRAVQHMHRQKPPIIHRDLKVENLLLSNQGTIKLCDFGSATTISHYPDYSWSAQRRALVEEEITRNTTPMYRTPEIIDLYSNFPIGEKQDIWALGCILYLLCFRQHPFEDGAKLRIVNGKYSIPPHDTQYTVFHSLIRAMLQVNPEERLSIAEVVHQLQEIAAARNVNPKSPITELLEQNGGYGSATLSRGPPPPVGPAGSGYSGGLALAEYDQPYGGFLDILRGGTERLFTNLKDTSSKVIQSVANYAKGDLDISYITSRIAVMSFPAEGVESALKNNIEDVRLFLDSKHPGHYAVYNLSPRTYRPSRFHNRVSECGWAARRAPHLHTLYNICRNMHAWLRQDHKNVCVVHCMDGRAASAVAVCSFLCFCRLFSTAEAAVYMFSMKRCPPGIWPSHKRYIEYMCDMVAEEPITPHSKPILVRAVVMTPVPLFSKQRSGCRPFCEVYVGDERVASTSQEYDKMRDFKIEDGKAVIPLGVTVQGDVLIVIYHARSTLGGRLQAKMASMKMFQIQFHTGFVPRNATTVKFAKYDLDACDIQEKYPDLFQVNLEVEVEPRDRPSREAPPWENSSMRGLNPKILFSSREEQQDILSKFGKPELPRQPGSTAQYDAGAGSPEAEPTDSDSPPSSSADASRFLHTLDWQEEKEAETGAENASSKESESALMEDRDESEVSDEGGSPISSEGQEPRADPEPPGLAAGLVQQDLVFEVETPAVLPEPVPQEDGVDLLGLHSEVGAGPAVPPQACKAPSSNTDLLSCLLGPPEAASQGPPEDLLSEDPLLLASPAPPLSVQSTPRGGPPAAADPFGPLLPSSGNNSQPCSNPDLFGEFLNSDSVTVPPSFPSAHSAPPPSCSADFLHLGDLPGEPSKMTASSSNPDLLGGWAAWTETAASAVAPTPATEGPLFSPGGQPAPCGSQASWTKSQNPDPFADLGDLSSGLQGSPAGFPPGGFIPKTATTPKGSSSWQTSRPPAQGASWPPQAKPPPKACTQPRPNYASNFSVIGAREERGVRAPSFAQKPKVSENDFEDLLSNQGFSSRSDKKGPKTIAEMRKQDLAKDTDPLKLKLLDWIEGKERNIRALLSTLHTVLWDGESRWTPVGMADLVAPEQVKKHYRRAVLAVHPDKAAGQPYEQHAKMIFMELNDAWSEFENQGSRPLF
B2: ARL1 (protein, UniProt P40616 1-181)
chain: MGGFFSSIFSSLFGTREMRILILGLDGAGKTTILYRLQVGEVVTTIPTIGFNVETVTYKNLKFQVWDLGGQTSIRPYWRCYYSNTDAVIYVVDSCDRDRIGISKSELVAMLEEEELRKAILVVFANKQDMEQAMTSSEMANSLGLPALKDRKWQIFKTSATKGTGLDEAMEWLVETLKSRQ
B3: DENND11 (protein, UniProt A4D1U4 1-455)
chain: MVEQGDAAPLLRWAEGPAVSLPQAPQPQAGGWGRGGGGGARPAAEPPRRREPEEPAAPEVLLQPGRLELGDVEEDQVVAVFVVTFDPRSGNMVEWCLPQDIDLEGVEFKSMASGSHKIQSDFIYFRKGPFFGLACFANMPVESELERGARMKSVGILSPSYTLLYRYMHFLENQVRHQLEMPGHYSHLAAFYEDKKGVLHAGPGRGSSLPPVYWLPSIHRYMYPEMKITHPAGCMSQFIKFFGEQILILWKFALLRKRILIFSPPPVGVVCYRVYCCCCLANVSLPGIGGTIPESKPFFYVNVADIESLEVEVSYVACTTEKIFEEKRELYDVYVDNQNVKTHHDHLQPLLKINSADREKYRRLNEQRQMLLYSQEVEEDYNPCEEDLFVLFFLEQNNRIFQTLLEVSASQDKTLTAEHARGMGLDPQGDRSFLLDLLEAYGIDVMLVIDNPCCP
B4: RGS12 (protein, UniProt O14924 1-1447)
chain: MFRAGEASKRPLPGPSPPRVRSVEVARGRAGYGFTLSGQAPCVLSCVMRGSPADFVGLRAGDQILAVNEINVKKASHEDVVKLIGKCSGVLHMVIAEGVGRFESCSSDEEGGLYEGKGWLKPKLDSKALGINRAERVVEEMQSGGIFNMIFENPSLCASNSEPLKLKQRSLSESAATRFDVGHESINNPNPNMLSKEEISKVIHDDSVFSIGLESHDDFALDASILNVAMIVGYLGSIELPSTSSNLESDSLQAIRGCMRRLRAEQKIHSLVTMKIMHDCVQLSTDKAGVVAEYPAEKLAFSAVCPDDRRFFGLVTMQTNDDGSLAQEEEGALRTSCHVFMVDPDLFNHKIHQGIARRFGFECTADPDTNGCLEFPASSLPVLQFISVLYRDMGELIEGMRARAFLDGDADAHQNNSTSSNSDSGIGNFHQEEKSNRVLVVDLGGSSSRHGPGGSAWDGVGGRGAQPWGAPWTGPFCPDPEGSPPFEAAHQTDRFWDLNKHLGPASPVEVPPASLRSSVPPSKRGTVGAGCGFNQRWLPVHVLREWQCGHTSDQDSYTDSTDGWSSINCGTLPPPMSKIPADRYRVEGSFAQPPLNAPKREWSRKAFGMQSIFGPHRNVRKTKEDKKGSKFGRGTGLTQPSQRTSARRSFGRSKRFSITRSLDDLESATVSDGELTGADLKDCVSNNSLSSNASLPSVQSCRRLRERRVASWAVSFERLLQDPVGVRYFSDFLRKEFSEENILFWQACEYFNHVPAHDKKELSYRAREIFSKFLCSKATTPVNIDSQAQLADDVLRAPHPDMFKEQQLQIFNLMKFDSYTRFLKSPLYQECILAEVEGRALPDSQQVPSSPASKHSLGSDHSSVSTPKKLSGKSKSGRSLNEELGDEDSEKKRKGAFFSWSRTRSTGRSQKKREHGDHADDALHANGGLCRRESQGSVSSAGSLDLSEACRTLAPEKDKATKHCCIHLPDGTSCVVAVKAGFSIKDILSGLCERHGINGAAADLFLVGGDKPLVLHQDSSILESRDLRLEKRTLFRLDLVPINRSVGLKAKPTKPVTEVLRPVVARYGLDLSGLLVRLSGEKEPLDLGAPISSLDGQRVVLEEKDPSRGKASADKQKGVPVKQNTAVNSSSRNHSATGEERTLGKSNSIKIKGENGKNARDPRLSKREESIAKIGKKKYQKINLDEAEEFFELISKAQSNRADDQRGLLRKEDLVLPEFLRLPPGSTELTLPTPAAVAKGFSKRSATGNGRESASQPGEQWEPVQESSDSPSTSPGSASSPPGPPGTTPPGQKSPSGPFCTPQSPVSLAQEGTAQIWKRQSQEVEAGGIQTVEDEHVAELTLMGEGDISSPNSTLLPPPSTPQEVPGPSRPGSGTHGSRDLPVNRIIDVDLVTGSAPGRDGGIAGAQAGPGRSQASGGPPTSDLPGLGPVPGEPAKPKTSAHHATFV

Biological target: C-terminal Kv1.3-TurboID (Kv1.3-V5-TurboID fusion) (human) (UniProt P22001)
Assay: proximity labelling; TurboID fused to Kv1.3, stably expressed in Jurkat T-cells; 200 μM biotin for 1 h; lysis in 8 M urea; biotinylated proteins enriched on streptavidin magnetic beads; label-free quantitative MS against untransduced Jurkat T-cells or between lines (>4-fold, p<0.05; n=3)

Molecule	binding
ADD1 (from UniProt P35611 1-737)	binds
AP1G1 (from UniProt O43747 1-822)	binds
ARHGAP32 (from UniProt A7KAX9 1-2087)	binds
CLTC (from UniProt Q00610 1-1675)	binds
DOCK10 (from UniProt Q96BY6 1-2186)	binds
EIF5 (from UniProt P55010 1-431)	binds
ERBIN (from UniProt Q96RT1 1-1412)	binds
FER (from UniProt P16591 1-822)	binds
NF2 (from UniProt P35240 1-595)	binds
NPC1 (from UniProt O15118 23-1278)	binds
PEAK1 (from UniProt Q9H792 1-1746)	binds
PIK3C2A (from UniProt O00443 1-1686)	binds
ROCK2 (from UniProt O75116 1-1388)	binds
TOM1 (from UniProt O60784 1-492)	binds
TUBB6 (from UniProt Q9BUF5 1-446)	binds
VCP (from UniProt P55072 1-806)	binds
VPS26A (from UniProt O75436 1-327)	binds
B1	binds
B2	binds
B3	binds
B4	binds
